Experimental data as given in doi:10.1101/2021.06.03.446951.
Results are given in words; binding and its absence hold for the method and conditions named. In cells and extracts the contact can be indirect. Some entries that bind do so weakly or less than the wild type.

T1: Insig-2 (pull-down assay) (human) (UniProt Q9Y5U4)
T1 sequence: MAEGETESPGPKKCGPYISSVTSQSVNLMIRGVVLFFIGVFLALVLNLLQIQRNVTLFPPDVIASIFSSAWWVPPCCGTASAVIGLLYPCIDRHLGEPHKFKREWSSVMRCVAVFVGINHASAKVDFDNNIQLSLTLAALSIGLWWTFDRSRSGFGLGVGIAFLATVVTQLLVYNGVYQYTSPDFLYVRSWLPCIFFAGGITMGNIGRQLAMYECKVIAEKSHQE

T2: Insig-2(F115A) (pull-down assay) (human) (UniProt Q9Y5U4)
T2 sequence: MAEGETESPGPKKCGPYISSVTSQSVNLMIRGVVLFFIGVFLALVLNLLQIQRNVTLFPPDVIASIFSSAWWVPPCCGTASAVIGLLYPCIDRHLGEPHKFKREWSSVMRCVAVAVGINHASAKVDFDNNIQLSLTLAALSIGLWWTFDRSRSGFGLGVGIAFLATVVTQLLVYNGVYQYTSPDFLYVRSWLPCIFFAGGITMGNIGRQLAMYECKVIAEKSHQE


Experiments:
[1] = target: T1, Insig-2 (pull-down assay) (human); test: pull-down
[2] = target: T2, Insig-2(F115A) (pull-down assay) (human); test: pull-down

Row | binding [1] | binding [2] | Binder
1 | binds | no binding | Scap(D428A) (pull-down assay) (protein, UniProt Q12770 1-1279) MTLTERLREKISRAFYNHGLLCASYPIPIILFTGFCILACCYPLLKLPLPGTGPVEFTTPVKDYSPPPVDSDRKQGEPTEQPEWYVGAPVAYVQQIFVKSSVFPWHKNLLAVDVFRSPLSRAFQLVEEIRNHVLRDSSGIRSLEELCLQVTDLLPGLRKLRNLLPEHGCLLLSPGNFWQNDWERFHADPDIIGTIHQHEPKTLQTSATLKDLLFGVPGKYSGVSLYTRKRMVSYTITLVFQHYHAKFLGSLRARLMLLHPSPNCSLRAESLVHVHFKEEIGVAELIPLVTTYIILFAYIYFSTRKIDMVKSKWGLALAAVVTVLSSLLMSVGLCTLFGLTPTLNGGEIFPYLVVVIGLENVLVLTKSVVSTPVDLEVKLRIAQGLSSESWSIMKNMATELGIILIGYFTLVPAIQEFCLFAVVGLVSAFFLQMLFFTTVLSIDIRRMELADLNKRLPPEACLPSAKPVGQPTRYERQLAVRPSTPHTITLQPSSFRNLRLPKRLRVVYFLARTRLAQRLIMAGTVVWIGILVYTDPAGLRNYLAAQVTEQSPLGEGALAPMPVPSGMLPPSHPDPAFSIFPPDAPKLPENQTSPGESPERGGPAEVVHDSPVPEVTWGPEDEELWRKLSFRHWPTLFSYYNITLAKRYISLLPVIPVTLRLNPREALEGRHPQDGRSAWPPPGPIPAGHWEAGPKGPGGVQAHGDVTLYKVAALGLATGIVLVLLLLCLYRVLCPRNYGQLGGGPGRRRRGELPCDDYGYAPPETEIVPLVLRGHLMDIECLASDGMLLVSCCLAGHVCVWDAQTGDCLTRIPRPGRQRRDSGVGSGLEAQESWERLSDGGKAGPEEPGDSPPLRHRPRGPPPPSLFGDQPDLTCLIDTNFSAQPRSSQPTQPEPRHRAVCGRSRDSPGYDFSCLVQRVYQEEGLAAVCTPALRPPSPGPVLSQAPEDEGGSPEKGSPSLAWAPSAEGSIWSLELQGNLIVVGRSSGRLEVWDAIEGVLCCSSEEVSSGITALVFLDKRIVAARLNGSLDFFSLETHTALSPLQFRGTPGRGSSPASPVYSSSDTVACHLTHTVPCAHQKPITALKAAAGRLVTGSQDHTLRVFRLEDSCCLFTLQGHSGAITTVYIDQTMVLASGGQDGAICLWDVLTGSRVSHVFAHRGDVTSLTCTTSCVISSGLDDLISIWDRSTGIKFYSIQQDLGCGASLGVISDNLLVTGGQGCVSFWDLNYGDLLQTVYLGKNSEAQPARQILVLDNAAIVCNFGSELSLVYVPSVLEKLD
2 |  | no binding | WT Scap (pull-down assay) (protein, UniProt Q12770 1-1279) MTLTERLREKISRAFYNHGLLCASYPIPIILFTGFCILACCYPLLKLPLPGTGPVEFTTPVKDYSPPPVDSDRKQGEPTEQPEWYVGAPVAYVQQIFVKSSVFPWHKNLLAVDVFRSPLSRAFQLVEEIRNHVLRDSSGIRSLEELCLQVTDLLPGLRKLRNLLPEHGCLLLSPGNFWQNDWERFHADPDIIGTIHQHEPKTLQTSATLKDLLFGVPGKYSGVSLYTRKRMVSYTITLVFQHYHAKFLGSLRARLMLLHPSPNCSLRAESLVHVHFKEEIGVAELIPLVTTYIILFAYIYFSTRKIDMVKSKWGLALAAVVTVLSSLLMSVGLCTLFGLTPTLNGGEIFPYLVVVIGLENVLVLTKSVVSTPVDLEVKLRIAQGLSSESWSIMKNMATELGIILIGYFTLVPAIQEFCLFAVVGLVSDFFLQMLFFTTVLSIDIRRMELADLNKRLPPEACLPSAKPVGQPTRYERQLAVRPSTPHTITLQPSSFRNLRLPKRLRVVYFLARTRLAQRLIMAGTVVWIGILVYTDPAGLRNYLAAQVTEQSPLGEGALAPMPVPSGMLPPSHPDPAFSIFPPDAPKLPENQTSPGESPERGGPAEVVHDSPVPEVTWGPEDEELWRKLSFRHWPTLFSYYNITLAKRYISLLPVIPVTLRLNPREALEGRHPQDGRSAWPPPGPIPAGHWEAGPKGPGGVQAHGDVTLYKVAALGLATGIVLVLLLLCLYRVLCPRNYGQLGGGPGRRRRGELPCDDYGYAPPETEIVPLVLRGHLMDIECLASDGMLLVSCCLAGHVCVWDAQTGDCLTRIPRPGRQRRDSGVGSGLEAQESWERLSDGGKAGPEEPGDSPPLRHRPRGPPPPSLFGDQPDLTCLIDTNFSAQPRSSQPTQPEPRHRAVCGRSRDSPGYDFSCLVQRVYQEEGLAAVCTPALRPPSPGPVLSQAPEDEGGSPEKGSPSLAWAPSAEGSIWSLELQGNLIVVGRSSGRLEVWDAIEGVLCCSSEEVSSGITALVFLDKRIVAARLNGSLDFFSLETHTALSPLQFRGTPGRGSSPASPVYSSSDTVACHLTHTVPCAHQKPITALKAAAGRLVTGSQDHTLRVFRLEDSCCLFTLQGHSGAITTVYIDQTMVLASGGQDGAICLWDVLTGSRVSHVFAHRGDVTSLTCTTSCVISSGLDDLISIWDRSTGIKFYSIQQDLGCGASLGVISDNLLVTGGQGCVSFWDLNYGDLLQTVYLGKNSEAQPARQILVLDNAAIVCNFGSELSLVYVPSVLEKLD
3 | no binding |  | Scap(Y351A) (pull-down assay) (protein, UniProt Q12770 1-1279) MTLTERLREKISRAFYNHGLLCASYPIPIILFTGFCILACCYPLLKLPLPGTGPVEFTTPVKDYSPPPVDSDRKQGEPTEQPEWYVGAPVAYVQQIFVKSSVFPWHKNLLAVDVFRSPLSRAFQLVEEIRNHVLRDSSGIRSLEELCLQVTDLLPGLRKLRNLLPEHGCLLLSPGNFWQNDWERFHADPDIIGTIHQHEPKTLQTSATLKDLLFGVPGKYSGVSLYTRKRMVSYTITLVFQHYHAKFLGSLRARLMLLHPSPNCSLRAESLVHVHFKEEIGVAELIPLVTTYIILFAYIYFSTRKIDMVKSKWGLALAAVVTVLSSLLMSVGLCTLFGLTPTLNGGEIFPALVVVIGLENVLVLTKSVVSTPVDLEVKLRIAQGLSSESWSIMKNMATELGIILIGYFTLVPAIQEFCLFAVVGLVSDFFLQMLFFTTVLSIDIRRMELADLNKRLPPEACLPSAKPVGQPTRYERQLAVRPSTPHTITLQPSSFRNLRLPKRLRVVYFLARTRLAQRLIMAGTVVWIGILVYTDPAGLRNYLAAQVTEQSPLGEGALAPMPVPSGMLPPSHPDPAFSIFPPDAPKLPENQTSPGESPERGGPAEVVHDSPVPEVTWGPEDEELWRKLSFRHWPTLFSYYNITLAKRYISLLPVIPVTLRLNPREALEGRHPQDGRSAWPPPGPIPAGHWEAGPKGPGGVQAHGDVTLYKVAALGLATGIVLVLLLLCLYRVLCPRNYGQLGGGPGRRRRGELPCDDYGYAPPETEIVPLVLRGHLMDIECLASDGMLLVSCCLAGHVCVWDAQTGDCLTRIPRPGRQRRDSGVGSGLEAQESWERLSDGGKAGPEEPGDSPPLRHRPRGPPPPSLFGDQPDLTCLIDTNFSAQPRSSQPTQPEPRHRAVCGRSRDSPGYDFSCLVQRVYQEEGLAAVCTPALRPPSPGPVLSQAPEDEGGSPEKGSPSLAWAPSAEGSIWSLELQGNLIVVGRSSGRLEVWDAIEGVLCCSSEEVSSGITALVFLDKRIVAARLNGSLDFFSLETHTALSPLQFRGTPGRGSSPASPVYSSSDTVACHLTHTVPCAHQKPITALKAAAGRLVTGSQDHTLRVFRLEDSCCLFTLQGHSGAITTVYIDQTMVLASGGQDGAICLWDVLTGSRVSHVFAHRGDVTSLTCTTSCVISSGLDDLISIWDRSTGIKFYSIQQDLGCGASLGVISDNLLVTGGQGCVSFWDLNYGDLLQTVYLGKNSEAQPARQILVLDNAAIVCNFGSELSLVYVPSVLEKLD
4 | no binding |  | Scap variant containing double mutations I294A and F301A (pull-down assay) (protein, UniProt Q12770 1-1279) MTLTERLREKISRAFYNHGLLCASYPIPIILFTGFCILACCYPLLKLPLPGTGPVEFTTPVKDYSPPPVDSDRKQGEPTEQPEWYVGAPVAYVQQIFVKSSVFPWHKNLLAVDVFRSPLSRAFQLVEEIRNHVLRDSSGIRSLEELCLQVTDLLPGLRKLRNLLPEHGCLLLSPGNFWQNDWERFHADPDIIGTIHQHEPKTLQTSATLKDLLFGVPGKYSGVSLYTRKRMVSYTITLVFQHYHAKFLGSLRARLMLLHPSPNCSLRAESLVHVHFKEEIGVAELIPLVTTYIALFAYIYASTRKIDMVKSKWGLALAAVVTVLSSLLMSVGLCTLFGLTPTLNGGEIFPYLVVVIGLENVLVLTKSVVSTPVDLEVKLRIAQGLSSESWSIMKNMATELGIILIGYFTLVPAIQEFCLFAVVGLVSDFFLQMLFFTTVLSIDIRRMELADLNKRLPPEACLPSAKPVGQPTRYERQLAVRPSTPHTITLQPSSFRNLRLPKRLRVVYFLARTRLAQRLIMAGTVVWIGILVYTDPAGLRNYLAAQVTEQSPLGEGALAPMPVPSGMLPPSHPDPAFSIFPPDAPKLPENQTSPGESPERGGPAEVVHDSPVPEVTWGPEDEELWRKLSFRHWPTLFSYYNITLAKRYISLLPVIPVTLRLNPREALEGRHPQDGRSAWPPPGPIPAGHWEAGPKGPGGVQAHGDVTLYKVAALGLATGIVLVLLLLCLYRVLCPRNYGQLGGGPGRRRRGELPCDDYGYAPPETEIVPLVLRGHLMDIECLASDGMLLVSCCLAGHVCVWDAQTGDCLTRIPRPGRQRRDSGVGSGLEAQESWERLSDGGKAGPEEPGDSPPLRHRPRGPPPPSLFGDQPDLTCLIDTNFSAQPRSSQPTQPEPRHRAVCGRSRDSPGYDFSCLVQRVYQEEGLAAVCTPALRPPSPGPVLSQAPEDEGGSPEKGSPSLAWAPSAEGSIWSLELQGNLIVVGRSSGRLEVWDAIEGVLCCSSEEVSSGITALVFLDKRIVAARLNGSLDFFSLETHTALSPLQFRGTPGRGSSPASPVYSSSDTVACHLTHTVPCAHQKPITALKAAAGRLVTGSQDHTLRVFRLEDSCCLFTLQGHSGAITTVYIDQTMVLASGGQDGAICLWDVLTGSRVSHVFAHRGDVTSLTCTTSCVISSGLDDLISIWDRSTGIKFYSIQQDLGCGASLGVISDNLLVTGGQGCVSFWDLNYGDLLQTVYLGKNSEAQPARQILVLDNAAIVCNFGSELSLVYVPSVLEKLD
